1 substance from PMC12184535 can be followed below.

Chains of the proteins cited; added tags and fusions are not shown.
UniProt Q04690: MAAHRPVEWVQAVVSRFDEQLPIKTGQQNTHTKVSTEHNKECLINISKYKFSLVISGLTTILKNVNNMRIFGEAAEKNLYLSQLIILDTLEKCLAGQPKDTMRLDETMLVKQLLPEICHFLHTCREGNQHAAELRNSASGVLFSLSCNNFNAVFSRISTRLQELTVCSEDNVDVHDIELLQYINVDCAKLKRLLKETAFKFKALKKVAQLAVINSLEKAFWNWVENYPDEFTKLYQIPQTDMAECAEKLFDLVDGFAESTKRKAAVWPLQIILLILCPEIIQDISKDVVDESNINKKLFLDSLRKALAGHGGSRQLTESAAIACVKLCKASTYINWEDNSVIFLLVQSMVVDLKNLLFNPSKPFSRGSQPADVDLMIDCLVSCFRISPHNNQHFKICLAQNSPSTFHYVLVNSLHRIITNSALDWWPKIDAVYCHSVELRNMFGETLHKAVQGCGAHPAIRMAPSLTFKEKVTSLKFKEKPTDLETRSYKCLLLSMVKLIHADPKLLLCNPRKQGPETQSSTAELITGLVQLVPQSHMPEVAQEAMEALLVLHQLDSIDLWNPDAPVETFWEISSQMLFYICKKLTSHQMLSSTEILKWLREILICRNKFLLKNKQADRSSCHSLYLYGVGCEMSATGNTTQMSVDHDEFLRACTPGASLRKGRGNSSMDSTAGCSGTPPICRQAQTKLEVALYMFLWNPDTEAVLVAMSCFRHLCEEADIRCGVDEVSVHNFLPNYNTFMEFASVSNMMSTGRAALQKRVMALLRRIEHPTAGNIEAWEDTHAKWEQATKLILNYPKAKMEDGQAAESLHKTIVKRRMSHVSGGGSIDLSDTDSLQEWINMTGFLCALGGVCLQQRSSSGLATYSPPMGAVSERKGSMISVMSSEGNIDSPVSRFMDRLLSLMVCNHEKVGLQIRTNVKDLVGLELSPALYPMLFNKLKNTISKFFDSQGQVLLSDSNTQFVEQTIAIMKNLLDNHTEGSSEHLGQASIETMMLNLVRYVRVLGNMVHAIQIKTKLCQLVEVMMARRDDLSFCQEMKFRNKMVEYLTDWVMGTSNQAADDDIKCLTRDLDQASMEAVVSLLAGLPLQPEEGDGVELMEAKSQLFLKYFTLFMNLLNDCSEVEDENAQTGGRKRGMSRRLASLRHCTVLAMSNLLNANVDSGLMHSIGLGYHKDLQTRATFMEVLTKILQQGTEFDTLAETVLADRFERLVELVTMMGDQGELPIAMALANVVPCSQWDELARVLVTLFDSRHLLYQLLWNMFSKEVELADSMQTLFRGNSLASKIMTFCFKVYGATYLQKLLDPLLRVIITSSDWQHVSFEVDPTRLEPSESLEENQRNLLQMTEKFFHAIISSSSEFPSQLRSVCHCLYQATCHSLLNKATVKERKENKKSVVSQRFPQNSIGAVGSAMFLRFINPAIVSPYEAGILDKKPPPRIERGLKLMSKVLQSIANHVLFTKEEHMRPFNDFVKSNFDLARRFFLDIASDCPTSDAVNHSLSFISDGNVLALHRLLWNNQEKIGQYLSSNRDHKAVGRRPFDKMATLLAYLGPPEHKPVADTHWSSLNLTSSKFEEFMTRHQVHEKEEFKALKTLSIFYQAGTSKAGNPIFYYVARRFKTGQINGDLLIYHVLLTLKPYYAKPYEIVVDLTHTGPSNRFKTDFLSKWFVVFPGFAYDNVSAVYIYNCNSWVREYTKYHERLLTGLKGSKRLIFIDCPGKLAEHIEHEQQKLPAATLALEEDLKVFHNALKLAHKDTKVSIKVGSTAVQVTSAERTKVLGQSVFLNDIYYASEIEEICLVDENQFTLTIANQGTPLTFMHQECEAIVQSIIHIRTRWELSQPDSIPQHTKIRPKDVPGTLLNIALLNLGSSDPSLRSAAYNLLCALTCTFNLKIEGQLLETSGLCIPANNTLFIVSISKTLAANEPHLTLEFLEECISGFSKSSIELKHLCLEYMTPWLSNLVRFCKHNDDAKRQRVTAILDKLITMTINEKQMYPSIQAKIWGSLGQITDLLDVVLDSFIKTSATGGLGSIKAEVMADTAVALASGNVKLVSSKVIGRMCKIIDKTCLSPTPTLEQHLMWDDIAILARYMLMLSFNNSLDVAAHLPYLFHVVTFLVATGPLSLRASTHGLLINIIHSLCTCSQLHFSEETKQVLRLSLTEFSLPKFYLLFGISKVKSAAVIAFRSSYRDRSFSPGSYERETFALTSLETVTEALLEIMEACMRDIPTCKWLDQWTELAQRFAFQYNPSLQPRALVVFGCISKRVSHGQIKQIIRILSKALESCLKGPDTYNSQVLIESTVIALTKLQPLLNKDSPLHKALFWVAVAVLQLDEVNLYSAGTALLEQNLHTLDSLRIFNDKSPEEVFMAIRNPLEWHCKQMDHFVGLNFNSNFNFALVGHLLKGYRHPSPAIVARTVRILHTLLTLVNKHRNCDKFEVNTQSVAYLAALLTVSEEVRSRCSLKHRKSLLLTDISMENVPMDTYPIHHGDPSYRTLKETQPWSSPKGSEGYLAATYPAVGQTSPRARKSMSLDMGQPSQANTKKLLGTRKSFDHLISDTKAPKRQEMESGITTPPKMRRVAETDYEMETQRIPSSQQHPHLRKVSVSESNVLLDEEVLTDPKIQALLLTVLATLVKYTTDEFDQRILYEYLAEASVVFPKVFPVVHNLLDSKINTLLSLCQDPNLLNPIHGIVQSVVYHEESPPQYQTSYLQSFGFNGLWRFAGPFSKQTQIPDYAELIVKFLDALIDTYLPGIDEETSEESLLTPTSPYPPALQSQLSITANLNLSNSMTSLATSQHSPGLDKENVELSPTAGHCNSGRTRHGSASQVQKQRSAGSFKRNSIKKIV

These are yes or no findings as the source states them, for the method shown. In cells and extracts the contact can be indirect. Some binding calls cover weakened binding; strength is not graded here. Sequences can lack the tags named with a protein.

In the test the target is T1, glucose transporter-1 (GLUT1) (mouse (endogenous in bone marrow-derived macrophages)) (UniProt P17809).
T1 sequence: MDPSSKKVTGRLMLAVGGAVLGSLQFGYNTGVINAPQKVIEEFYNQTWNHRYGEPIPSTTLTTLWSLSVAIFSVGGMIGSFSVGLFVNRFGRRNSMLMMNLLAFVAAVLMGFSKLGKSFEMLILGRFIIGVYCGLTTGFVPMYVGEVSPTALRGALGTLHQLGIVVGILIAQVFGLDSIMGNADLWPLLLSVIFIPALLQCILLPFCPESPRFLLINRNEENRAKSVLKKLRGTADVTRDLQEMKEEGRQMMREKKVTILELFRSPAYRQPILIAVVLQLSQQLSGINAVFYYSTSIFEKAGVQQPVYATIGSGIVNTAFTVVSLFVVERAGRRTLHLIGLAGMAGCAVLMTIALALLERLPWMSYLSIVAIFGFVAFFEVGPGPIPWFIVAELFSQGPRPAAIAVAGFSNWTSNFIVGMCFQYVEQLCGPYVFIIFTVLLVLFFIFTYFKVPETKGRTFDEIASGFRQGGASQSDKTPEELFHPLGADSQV
In words: co-IP; anti-GLUT1 antibody (CST 12939) on Dynabeads incubated with lysates (800 ug protein, RIPA buffer) of M-CSF, LPS/IFNγ- or IL-4-polarized bone marrow-derived macrophages of Nf1^f/f mice overnight at 4°C; immune complex blotted with anti-neurofibromin antibody.

Turning to “neurofibromin (from UniProt Q04690 1-2841)”, the binding entry is recorded as “binds”.
